In PMC4860962:
These are yes or no findings as the source states them, for the method shown. Binding seen in cells or lysates may run through a third protein. Some results given as binding are weak or reduced against the parent protein; the word gives no strength. Sequences can lack the tags named with a protein.

By UniProt entry, the sequences of proteins in these tests, tags left out.
UniProt Q00987: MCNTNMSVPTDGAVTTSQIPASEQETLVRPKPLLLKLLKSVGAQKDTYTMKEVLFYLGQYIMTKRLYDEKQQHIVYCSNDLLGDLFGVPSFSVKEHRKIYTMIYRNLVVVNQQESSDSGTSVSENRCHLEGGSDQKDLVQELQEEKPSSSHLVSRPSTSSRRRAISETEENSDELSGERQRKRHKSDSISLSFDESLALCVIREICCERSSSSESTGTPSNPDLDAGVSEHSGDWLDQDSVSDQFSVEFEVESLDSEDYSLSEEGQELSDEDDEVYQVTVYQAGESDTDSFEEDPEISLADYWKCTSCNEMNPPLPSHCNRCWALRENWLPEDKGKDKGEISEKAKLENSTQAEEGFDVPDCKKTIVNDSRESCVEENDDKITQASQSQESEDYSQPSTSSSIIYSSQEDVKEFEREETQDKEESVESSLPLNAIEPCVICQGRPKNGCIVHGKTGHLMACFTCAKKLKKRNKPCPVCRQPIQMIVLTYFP

How the values were obtained:
[1] = molecular target: T1, Flag/HA-SMG7 transiently expressed in H1299 cells (human) (UniProt Q92540); assay: co-IP; α-Flag M2 agarose immunoprecipitation from BC100 extracts of cells expressing the Flag- or Flag-HA-tagged protein (H1299 or 293 transient, U2OS stable), Flag peptide elution, western blot
T1 sequence: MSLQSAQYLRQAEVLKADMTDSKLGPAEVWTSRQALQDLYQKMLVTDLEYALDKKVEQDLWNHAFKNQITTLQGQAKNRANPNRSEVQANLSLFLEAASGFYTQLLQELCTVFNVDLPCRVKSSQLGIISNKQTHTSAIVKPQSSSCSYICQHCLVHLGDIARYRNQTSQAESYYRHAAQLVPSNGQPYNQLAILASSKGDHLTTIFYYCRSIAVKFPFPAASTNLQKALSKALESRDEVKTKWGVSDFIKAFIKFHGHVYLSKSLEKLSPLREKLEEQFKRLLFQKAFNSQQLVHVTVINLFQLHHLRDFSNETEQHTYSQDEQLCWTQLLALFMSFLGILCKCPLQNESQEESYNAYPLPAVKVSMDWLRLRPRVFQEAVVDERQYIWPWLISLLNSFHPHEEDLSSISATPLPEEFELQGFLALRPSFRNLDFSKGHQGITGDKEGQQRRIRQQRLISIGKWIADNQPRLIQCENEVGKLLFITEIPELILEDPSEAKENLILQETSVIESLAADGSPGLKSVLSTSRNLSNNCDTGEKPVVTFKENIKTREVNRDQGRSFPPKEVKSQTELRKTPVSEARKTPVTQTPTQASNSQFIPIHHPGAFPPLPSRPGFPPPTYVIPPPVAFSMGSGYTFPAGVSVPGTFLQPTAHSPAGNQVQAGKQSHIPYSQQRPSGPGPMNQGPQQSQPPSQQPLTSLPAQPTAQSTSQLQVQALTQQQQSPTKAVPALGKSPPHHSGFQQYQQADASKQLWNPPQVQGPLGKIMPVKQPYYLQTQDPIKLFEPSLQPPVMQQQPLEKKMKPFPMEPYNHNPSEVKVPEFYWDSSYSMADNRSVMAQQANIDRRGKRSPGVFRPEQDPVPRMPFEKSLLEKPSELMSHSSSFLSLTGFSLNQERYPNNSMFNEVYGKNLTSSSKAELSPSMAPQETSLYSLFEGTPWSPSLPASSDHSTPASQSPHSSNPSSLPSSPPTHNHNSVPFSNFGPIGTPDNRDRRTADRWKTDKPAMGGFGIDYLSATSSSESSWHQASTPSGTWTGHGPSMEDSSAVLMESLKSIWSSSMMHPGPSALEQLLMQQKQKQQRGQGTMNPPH

[2] = molecular target: T2, Flag/HA-SMG7 stably expressed in U2OS cells (human) (UniProt Q92540); assay: as above
T2 sequence: T1 sequence

binding [1]	binding [2]	Substance
binds		Mdm2 transiently expressed in H1299 cells (from UniProt Q00987 1-491)
	binds	Mdm2, endogenous in U2OS cells (from UniProt Q00987 1-491)
